Among the data in publication PMC7442838 are binding values, retold here.

By UniProt entry, the sequences of proteins in these tests, tags left out. Residues count along the entry.
UniProt P07333, residues 20-972: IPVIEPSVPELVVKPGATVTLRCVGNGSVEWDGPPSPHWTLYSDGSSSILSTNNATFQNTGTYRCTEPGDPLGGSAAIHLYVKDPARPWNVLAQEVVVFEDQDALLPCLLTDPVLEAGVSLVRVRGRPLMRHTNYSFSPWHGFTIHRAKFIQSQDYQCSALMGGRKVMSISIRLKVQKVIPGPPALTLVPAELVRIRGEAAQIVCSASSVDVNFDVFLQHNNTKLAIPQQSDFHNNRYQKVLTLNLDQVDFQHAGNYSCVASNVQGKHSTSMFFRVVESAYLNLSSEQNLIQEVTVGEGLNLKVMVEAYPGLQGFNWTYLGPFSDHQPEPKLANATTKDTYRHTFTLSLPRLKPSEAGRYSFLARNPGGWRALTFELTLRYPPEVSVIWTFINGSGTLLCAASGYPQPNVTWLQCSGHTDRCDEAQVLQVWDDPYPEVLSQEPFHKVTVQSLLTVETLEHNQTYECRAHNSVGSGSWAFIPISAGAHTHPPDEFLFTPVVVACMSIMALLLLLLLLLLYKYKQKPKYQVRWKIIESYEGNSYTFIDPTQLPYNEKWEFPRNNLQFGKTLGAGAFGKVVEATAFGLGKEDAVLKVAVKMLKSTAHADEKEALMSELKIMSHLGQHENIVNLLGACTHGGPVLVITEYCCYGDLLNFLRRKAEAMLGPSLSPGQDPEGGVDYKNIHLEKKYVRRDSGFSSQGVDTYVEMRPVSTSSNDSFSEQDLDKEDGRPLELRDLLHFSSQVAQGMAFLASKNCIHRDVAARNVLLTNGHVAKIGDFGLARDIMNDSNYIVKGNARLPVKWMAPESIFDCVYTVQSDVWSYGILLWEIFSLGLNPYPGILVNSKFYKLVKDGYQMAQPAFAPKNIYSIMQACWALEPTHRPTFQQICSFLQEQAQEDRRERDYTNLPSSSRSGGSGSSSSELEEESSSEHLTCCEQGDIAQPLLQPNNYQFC

These are yes or no findings as the source states them, for the method shown. Binding seen in cells or lysates may run through a third protein. Some results given as binding are weak or reduced against the parent protein; the word gives no strength. Where a sequence is shown, tags or fusion partners need not be part of it.

Assay [1] addresses T1, TMEM59-GFP (full length TMEM59, GFP-tagged) (human) (UniProt Q9BXS4).
T1 sequence: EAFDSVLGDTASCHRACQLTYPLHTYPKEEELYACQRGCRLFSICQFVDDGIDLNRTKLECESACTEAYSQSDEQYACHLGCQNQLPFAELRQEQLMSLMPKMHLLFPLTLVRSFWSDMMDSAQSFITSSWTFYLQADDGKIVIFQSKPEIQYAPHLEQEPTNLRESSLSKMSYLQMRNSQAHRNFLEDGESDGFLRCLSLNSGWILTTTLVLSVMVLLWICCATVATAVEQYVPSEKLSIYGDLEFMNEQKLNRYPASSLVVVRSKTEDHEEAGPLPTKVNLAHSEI
In words: co-IP; BV2 cells co-transfected for 24 h with Myc- and GFP-tagged plasmids; NP-40 lysis buffer (25 mM Tris-HCl pH 7.6, 150 mM NaCl, 1 mM EDTA, 1% Nonidet P-40); immunoprecipitation with antibodies against Myc or GFP or control mouse IgG and Protein G Agarose overnight; immunoblot for Myc or GFP. A general note: A western blot detects proteins with antibodies after separation by electrophoresis.

Assay [2] concerns the target CSF1R-HA (receptor for colony-stimulating factor-1) (UniProt P07333). As to the kind of experiment: co-IP; TMEM59 with CSF1R-HA as a control (Supplementary Fig. 4); cells and antibodies not given.

B1: TREM2-Myc (full-length TREM2, Myc-tagged) (receptor, UniProt Q9NZC2 19-230)
chain: HNTTVFQGVAGQSLQVSCPYDSMKHWGRRKAWCRQLGEKGPCQRVVSTHNLWLLSFLRRWNGSTAITDDTLGGTLTITLRNLQPHDAGLYQCQSLHGSEADTLRKVLVEVLADPLDHRDAGDLWFPGESESFEDAHVEHSISRSLLEGEIPFPPTSILLLLACIFLIKILAASALWAAAWHGQKPGTHPPSELDCGHDPGYQLQTLPGLRDT
As for B1, the binding entry in assay [1] is on record as “binds”.

B2: TMEM59 (as tested with CSF1R; tag not told) (protein, UniProt Q9BXS4 36-323)
chain: EAFDSVLGDTASCHRACQLTYPLHTYPKEEELYACQRGCRLFSICQFVDDGIDLNRTKLECESACTEAYSQSDEQYACHLGCQNQLPFAELRQEQLMSLMPKMHLLFPLTLVRSFWSDMMDSAQSFITSSWTFYLQADDGKIVIFQSKPEIQYAPHLEQEPTNLRESSLSKMSYLQMRNSQAHRNFLEDGESDGFLRCLSLNSGWILTTTLVLSVMVLLWICCATVATAVEQYVPSEKLSIYGDLEFMNEQKLNRYPASSLVVVRSKTEDHEEAGPLPTKVNLAHSEI
For the molecule B2, the binding entry in assay [2] is on record as “no binding”.
